Experimental data: article PMC9400329
Results are given in words; binding and its absence hold for the method and conditions named. In cells and extracts the contact can be indirect. Some entries that bind do so weakly or less than the wild type.

By UniProt entry, the sequences of proteins in these tests, tags left out.
UniProt P25490: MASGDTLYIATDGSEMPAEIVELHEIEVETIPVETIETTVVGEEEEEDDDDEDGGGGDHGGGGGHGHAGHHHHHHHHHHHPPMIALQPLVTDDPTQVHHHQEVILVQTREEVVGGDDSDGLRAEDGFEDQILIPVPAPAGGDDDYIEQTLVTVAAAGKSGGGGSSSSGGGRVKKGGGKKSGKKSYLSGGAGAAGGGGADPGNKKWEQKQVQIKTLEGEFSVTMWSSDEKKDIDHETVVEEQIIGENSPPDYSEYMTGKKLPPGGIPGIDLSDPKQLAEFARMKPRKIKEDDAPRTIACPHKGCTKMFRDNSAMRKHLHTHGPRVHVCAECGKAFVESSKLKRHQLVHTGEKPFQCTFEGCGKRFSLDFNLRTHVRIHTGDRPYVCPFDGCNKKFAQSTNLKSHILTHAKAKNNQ
UniProt Q09472: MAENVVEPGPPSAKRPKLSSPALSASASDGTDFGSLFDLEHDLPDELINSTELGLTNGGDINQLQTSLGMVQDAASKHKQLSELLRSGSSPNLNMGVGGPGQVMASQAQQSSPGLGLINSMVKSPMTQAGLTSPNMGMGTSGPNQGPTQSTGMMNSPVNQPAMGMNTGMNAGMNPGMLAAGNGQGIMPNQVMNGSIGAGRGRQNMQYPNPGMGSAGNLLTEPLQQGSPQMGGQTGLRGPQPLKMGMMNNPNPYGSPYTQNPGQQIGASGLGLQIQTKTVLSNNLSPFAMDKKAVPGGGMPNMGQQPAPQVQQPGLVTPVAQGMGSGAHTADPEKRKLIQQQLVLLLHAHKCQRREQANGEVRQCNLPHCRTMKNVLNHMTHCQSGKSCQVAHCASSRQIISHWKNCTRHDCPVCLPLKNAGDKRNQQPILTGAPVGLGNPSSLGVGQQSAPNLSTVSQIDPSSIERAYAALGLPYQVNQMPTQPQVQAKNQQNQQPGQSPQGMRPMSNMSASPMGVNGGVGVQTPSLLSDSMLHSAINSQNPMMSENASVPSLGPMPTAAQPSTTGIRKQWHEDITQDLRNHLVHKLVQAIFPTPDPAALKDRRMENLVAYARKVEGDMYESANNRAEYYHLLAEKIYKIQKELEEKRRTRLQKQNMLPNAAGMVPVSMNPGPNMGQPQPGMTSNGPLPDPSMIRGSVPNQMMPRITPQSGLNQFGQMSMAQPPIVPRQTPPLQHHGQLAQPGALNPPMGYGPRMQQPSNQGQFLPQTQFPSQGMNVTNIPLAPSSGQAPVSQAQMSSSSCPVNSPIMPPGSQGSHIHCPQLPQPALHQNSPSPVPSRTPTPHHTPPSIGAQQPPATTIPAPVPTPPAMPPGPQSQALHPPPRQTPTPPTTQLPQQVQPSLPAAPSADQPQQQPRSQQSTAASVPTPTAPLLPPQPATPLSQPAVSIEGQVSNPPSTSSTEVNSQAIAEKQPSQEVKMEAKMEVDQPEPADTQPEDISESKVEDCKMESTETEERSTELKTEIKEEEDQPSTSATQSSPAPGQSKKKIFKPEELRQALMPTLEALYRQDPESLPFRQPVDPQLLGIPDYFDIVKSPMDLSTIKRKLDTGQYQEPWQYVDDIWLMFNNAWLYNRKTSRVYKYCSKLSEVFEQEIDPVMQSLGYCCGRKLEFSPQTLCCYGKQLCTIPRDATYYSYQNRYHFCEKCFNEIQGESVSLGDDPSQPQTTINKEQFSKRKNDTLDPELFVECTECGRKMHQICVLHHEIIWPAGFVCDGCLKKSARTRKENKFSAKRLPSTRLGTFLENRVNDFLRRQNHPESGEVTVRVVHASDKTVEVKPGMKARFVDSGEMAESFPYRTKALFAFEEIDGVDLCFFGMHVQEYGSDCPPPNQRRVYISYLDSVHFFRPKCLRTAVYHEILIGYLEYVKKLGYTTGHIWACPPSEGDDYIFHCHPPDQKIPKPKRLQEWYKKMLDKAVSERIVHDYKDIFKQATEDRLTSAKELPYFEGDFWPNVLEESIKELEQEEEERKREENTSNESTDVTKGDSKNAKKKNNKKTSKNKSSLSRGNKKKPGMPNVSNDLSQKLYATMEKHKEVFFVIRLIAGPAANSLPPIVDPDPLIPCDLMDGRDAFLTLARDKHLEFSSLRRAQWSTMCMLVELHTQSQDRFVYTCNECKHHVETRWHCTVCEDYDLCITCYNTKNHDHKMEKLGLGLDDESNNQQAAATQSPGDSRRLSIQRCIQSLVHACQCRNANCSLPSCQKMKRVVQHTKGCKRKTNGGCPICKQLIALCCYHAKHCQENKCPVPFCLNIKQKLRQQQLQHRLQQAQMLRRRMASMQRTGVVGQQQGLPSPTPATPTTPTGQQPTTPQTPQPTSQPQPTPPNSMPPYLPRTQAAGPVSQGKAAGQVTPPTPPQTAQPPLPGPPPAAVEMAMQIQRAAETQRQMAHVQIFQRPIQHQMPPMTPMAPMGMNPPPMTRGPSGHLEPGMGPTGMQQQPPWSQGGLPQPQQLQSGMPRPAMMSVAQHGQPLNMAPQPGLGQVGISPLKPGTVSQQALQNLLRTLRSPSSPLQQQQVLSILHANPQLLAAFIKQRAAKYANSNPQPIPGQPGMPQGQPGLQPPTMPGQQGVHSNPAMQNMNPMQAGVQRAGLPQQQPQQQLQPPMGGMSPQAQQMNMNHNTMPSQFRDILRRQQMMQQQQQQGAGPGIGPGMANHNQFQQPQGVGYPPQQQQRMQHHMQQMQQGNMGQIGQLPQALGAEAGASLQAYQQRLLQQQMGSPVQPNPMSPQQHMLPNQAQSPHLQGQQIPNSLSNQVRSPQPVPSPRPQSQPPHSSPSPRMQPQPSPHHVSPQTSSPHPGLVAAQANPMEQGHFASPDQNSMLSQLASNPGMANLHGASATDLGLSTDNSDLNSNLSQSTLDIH

Target: YY1-myc (UniProt P25490)
Experiment: co-IP; Hep3B (control or CRNDE-silenced) and Huh7 (control or CRNDE-overexpressing) cells transfected with YY1-myc; lysate precipitated with anti-Myc antibody, 10% SDS-PAGE, western blot for p300

p300 (from UniProt Q09472 1-2414)
binding: binds
